# No constants are given. Whether binding was seen depends on the method and setting.
# B1: Hfq 38-residue C-terminal region peptide (peptide)
# peptide: SRPVSHHSNNAGGGTSSNYHHGSSAQNTSAQQDSEETE
# notes: Hfq (host factor 1), E. coli, C-terminal region; The lipid experiment names its sample only 'assembled Hfq CTR'; also called Hfq 38-residues; Hfq CTR; source: synthetic peptide (Proteogenix), assembled at 4 °C at 20 mg/mL for >1 month (D2O for FTIR)
# Biological target: Hfq 38-residue C-terminal region peptide (E. coli)
# Test: ATR-FTIR; assembled Hfq CTR (0.5 µL at 20 mg/mL in D2O) added onto a dried DOPG lipid film with 5 µL D2O; spectra every 90 min overnight (12 h); both purified
binder,measurement,value
B1,binding,"no binding (condition: with DOPG lipids, over 12 h)"

# From publication PMC10590398, “Hfq C-terminal region forms a β-rich amyloid-like motif without perturbing the N-terminal Sm-like structure” (Communications Biology, 2023)
